PubChem BioAssay AID1259308 | NCATS | 2017
In all, the deposit lists about 59,000 reagents; shown is a part drawn at random. Over the whole deposit, about 1,510 (2.6%) got an active call. 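Calls use total luciferase alone and ignore viability, so some active siRNAs may act by altering cell number.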 Entries without a mark were called inactive. The numbers tell different reagents against one gene apart. Not all columns of the deposit are shown.

Purpose: 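Knock-downs that increase output of a recombinant reporter protein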 (primary screen)
System: human HEK293 embryonic kidney cells stably expressing firefly luciferase (HEK-CMV-Luc2-Hygro)
Reagents: single siRNA against human genes, 0.8 pmol siRNA per well
Duration: 72 h
Measured: 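Luciferase light (ONE-Glo) measured on one replicate plate set and viability (CellTiter-Glo) on the other, scaled to a negative control siRNA, with robust z-scores and luciferase per cell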
Reading the numbers: total luciferase, z-score and total luciferase, % of control: higher = more reporter protein produced
Call rule: 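An siRNA counts as active if its total luciferase robust z-score exceeds 3; genes with two or more such siRNAs out of three were retested with fresh siRNAs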
Meaning of the calls: active = raised luciferase; inactive = no rise

For CAPRIN2 #1, what was measured?
total luciferase, z-score: -0.223; total luciferase, % of control: 77.5

What is on record for CAPRIN2 #2?
total luciferase, z-score: 0.246; total luciferase, % of control: 86.8

How did the screen score CAPRIN2 #3?
total luciferase, z-score: 1.17; total luciferase, % of control: 105

With CRYBB2 #1, how do the results read?
total luciferase, z-score: -0.796; total luciferase, % of control: 66.1

With CRYBB2 #2, what does the deposit list?
total luciferase, z-score: 3.17 (active); total luciferase, % of control: 145

With CRYBB2 #3, how do the results read?
total luciferase, z-score: -0.575; total luciferase, % of control: 70.5

What is on record for PDE8A #1?
total luciferase, z-score: -0.217; total luciferase, % of control: 77.6

For PDE8A #2, what was measured?
total luciferase, z-score: 2.53; total luciferase, % of control: 132

With PDE8A #3, how do the results read?
total luciferase, z-score: 0.287; total luciferase, % of control: 87.6

What is on record for HSPB3 #1?
total luciferase, z-score: 0.572; total luciferase, % of control: 93.3

How did the screen score HSPB3 #2?
total luciferase, z-score: -0.413; total luciferase, % of control: 73.7

With HSPB3 #3, how do the results read?
total luciferase, z-score: 1.77; total luciferase, % of control: 117

For INSYN2A #1, how do the results read?
total luciferase, z-score: 0.68; total luciferase, % of control: 95.4

With INSYN2A #2, what does the deposit list?
total luciferase, z-score: -0.11; total luciferase, % of control: 79.7

What did the screen give for INSYN2A #3?
total luciferase, z-score: -0.156; total luciferase, % of control: 78.8

What did the screen give for TTC21B #1?
total luciferase, z-score: -0.258; total luciferase, % of control: 76.7

With TTC21B #2, how do the results read?
total luciferase, z-score: 0.138; total luciferase, % of control: 84.6

Which result is listed for TTC21B #3?
total luciferase, z-score: 0.894; total luciferase, % of control: 99.7

With GABRA4 #1, what does the deposit list?
total luciferase, z-score: -0.686; total luciferase, % of control: 68.2

For GABRA4 #2, what does the deposit list?
total luciferase, z-score: -0.992; total luciferase, % of control: 62.2

With GABRA4 #3, what was measured?
total luciferase, z-score: -0.81; total luciferase, % of control: 65.8

For MAN1A1 #1, what does the deposit list?
total luciferase, z-score: 3.03 (active); total luciferase, % of control: 142

For MAN1A1 #2, what was measured?
total luciferase, z-score: -0.44; total luciferase, % of control: 73.1

With MAN1A1 #3, what does the deposit list?
total luciferase, z-score: 0.0794; total luciferase, % of control: 83.5

What is on record for CHUK #1?
total luciferase, z-score: 0.292; total luciferase, % of control: 87.7

For CHUK #2, what does the deposit list?
total luciferase, z-score: 0.242; total luciferase, % of control: 86.7

For CHUK #3, how do the results read?
total luciferase, z-score: -1.75; total luciferase, % of control: 47.1

With MRPL54 #1, what was measured?
total luciferase, z-score: -0.729; total luciferase, % of control: 67.4

What is on record for MRPL54 #2?
total luciferase, z-score: -0.466; total luciferase, % of control: 72.6

For MRPL54 #3, how do the results read?
total luciferase, z-score: -0.122; total luciferase, % of control: 79.5

What is on record for OR6K3 #1?
total luciferase, z-score: -0.0561; total luciferase, % of control: 80.8

Which result is listed for OR6K3 #2?
total luciferase, z-score: -1.08; total luciferase, % of control: 60.4

With OR6K3 #3, what was measured?
total luciferase, z-score: -0.045; total luciferase, % of control: 81

For SPHAR (retired record) #1, what was measured?
total luciferase, z-score: 0.0738; total luciferase, % of control: 83.4

With SPHAR (retired record) #2, how do the results read?
total luciferase, z-score: -0.879; total luciferase, % of control: 64.4

With SPHAR (retired record) #3, what does the deposit list?
total luciferase, z-score: -0.399; total luciferase, % of control: 74

For HMBOX1 #1, how do the results read?
total luciferase, z-score: 0.0793; total luciferase, % of control: 83.5

How did the screen score HMBOX1 #2?
total luciferase, z-score: 0.0931; total luciferase, % of control: 83.7

For HMBOX1 #3, how do the results read?
total luciferase, z-score: -0.0579; total luciferase, % of control: 80.7

What is on record for CYTH4 #1?
total luciferase, z-score: 0.758; total luciferase, % of control: 97

How did the screen score CYTH4 #2?
total luciferase, z-score: 1.42; total luciferase, % of control: 110

For CYTH4 #3, how do the results read?
total luciferase, z-score: 0.0348; total luciferase, % of control: 82.6
